# Some of these results come from one statement about several compounds together.
# System: human neutrophils
# Assay: In vitro TRAP formation by human blood neutrophils (PMNs) cultured with test agents
# Assay type: cell-based
# Details: commercial insulin and m-cresol at 1/5 dilution
# Protocol: From left to right and top to bottom (A)-(F), media only (A) and PMA (B), a known inducer of TRAPS in human neutrophils, present positive control.
# PMA=phorbol myristate acetate; Insulin is Humalog (Lilly); LPS is a bacterial endotoxin (known inducers of TRAPs.
# Green color (light color in grayscale) indicates the existence of TRAPs. In each slide set, the upper left slide is the control with media only. The upper right slide is Humalog insulin in media at 1/5 dilution (0.6 mg m-cresol/ml, with 0.6 mg/ml of insulin), PMA concentrations are in ng/ml and the lower right slide is m-cresol at 1/5 dilution (0.6 mg/ml of m-cresol). In this study, the media was RPMI 1640 (phenol free).
# In these examples, human blood neutrophils were placed in a culture dish+/−sensors in vitro. […] Brightfield refers to the use of non-fluorescent white light (78a). […] In FIG. 79, neutrophils were added to tissue culture dishes that contained a sensor (commercial type #1) to see if the sensor could directly trigger neutrophil death and TRAP release which we detect with fluorescent dyes like sytox green. FIG. 79a-c had no neutrophils added to the sensors. In FIG. 79d-f neutrophils were added. The sytox green binds to DNA, and fluoresces green in color photo, or white in black and white photos. […]
structure (smiles),measurement,value
Cc1cccc(O)c1 [m-cresol],time after exposure until TRAPs are triggered,60 to 120 min

# Source: patent US20250090729A1, “Methods and Products to Detect, Minimize and Treat TRAP-Related Tissue Reactions and Tissue Injury Associated With Medical Devices” (priority 2022, published 2025)
